In PMC6754406, “Ran pathway-independent regulation of mitotic Golgi disassembly by Importin-α” (Nature Communications, 2019):
No constants are given. Whether binding was seen depends on the method and setting. In cells and extracts the contact can be indirect. Some results given as binding are weak or reduced against the parent protein; the word gives no strength.

Tests used:
[1] = target: T1, GM130, endogenous in wild-type HEK293T cells (human (endogenous in HEK293T)) (UniProt Q08379); assay: proximity ligation; Duolink with GM130 and p115 antibodies on fixed HEK293T cells; interphase cells
T1 sequence: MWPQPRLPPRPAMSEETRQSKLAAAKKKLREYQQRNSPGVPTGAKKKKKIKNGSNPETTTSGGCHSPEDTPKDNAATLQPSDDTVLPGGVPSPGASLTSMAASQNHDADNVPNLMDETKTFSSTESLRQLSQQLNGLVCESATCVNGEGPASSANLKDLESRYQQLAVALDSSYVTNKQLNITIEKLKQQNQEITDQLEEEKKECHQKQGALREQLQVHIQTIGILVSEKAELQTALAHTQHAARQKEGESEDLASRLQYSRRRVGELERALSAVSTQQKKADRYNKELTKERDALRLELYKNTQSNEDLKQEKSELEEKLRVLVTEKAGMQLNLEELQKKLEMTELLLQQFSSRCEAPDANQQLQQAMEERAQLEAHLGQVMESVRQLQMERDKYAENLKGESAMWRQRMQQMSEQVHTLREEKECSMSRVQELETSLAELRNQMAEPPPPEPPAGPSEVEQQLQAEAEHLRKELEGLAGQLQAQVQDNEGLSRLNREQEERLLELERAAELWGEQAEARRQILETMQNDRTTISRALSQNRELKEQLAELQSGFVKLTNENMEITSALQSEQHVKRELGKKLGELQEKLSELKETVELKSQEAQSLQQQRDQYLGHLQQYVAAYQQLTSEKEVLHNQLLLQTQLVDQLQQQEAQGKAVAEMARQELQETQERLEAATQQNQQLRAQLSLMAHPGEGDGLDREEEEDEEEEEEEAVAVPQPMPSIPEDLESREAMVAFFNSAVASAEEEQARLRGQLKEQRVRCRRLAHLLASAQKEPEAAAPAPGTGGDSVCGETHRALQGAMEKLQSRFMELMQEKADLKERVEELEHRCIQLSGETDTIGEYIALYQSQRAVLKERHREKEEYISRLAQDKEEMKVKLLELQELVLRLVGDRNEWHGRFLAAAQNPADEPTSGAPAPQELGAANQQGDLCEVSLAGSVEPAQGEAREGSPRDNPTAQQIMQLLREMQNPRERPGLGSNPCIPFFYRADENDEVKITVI

[2] = target: T1, GM130, endogenous in wild-type HEK293T cells (human (endogenous in HEK293T)); assay: co-IP; GM130 antibody (Abcam ab52649) on lysates of nocodazole-arrested wild-type or K34A mutant HEK293T cells, also with the Cdk1 inhibitor RO-3306; Western blot for GM130, Importin-α and p115
[3] = target: T1, GM130, endogenous in wild-type HEK293T cells (human (endogenous in HEK293T)); assay: proximity ligation; Duolink with GM130 and p115 antibodies on fixed HEK293T cells; nocodazole-arrested mitotic cells

B1: p115, endogenous in HEK293T cells (protein, UniProt O60763 1-962)
chain: MNFLRGVMGGQSAGPQHTEAETIQKLCDRVASSTLLDDRRNAVRALKSLSKKYRLEVGIQAMEHLIHVLQTDRSDSEIIGYALDTLYNIISNEEEEEVEENSTRQSEDLGSQFTEIFIKQQENVTLLLSLLEEFDFHVRWPGVKLLTSLLKQLGPQVQQIILVSPMGVSRLMDLLADSREVIRNDGVLLLQALTRSNGAIQKIVAFENAFERLLDIISEEGNSDGGIVVEDCLILLQNLLKNNNSNQNFFKEGSYIQRMKPWFEVGDENSGWSAQKVTNLHLMLQLVRVLVSPTNPPGATSSCQKAMFQCGLLQQLCTILMATGVPADILTETINTVSEVIRGCQVNQDYFASVNAPSNPPRPAIVVLLMSMVNERQPFVLRCAVLYCFQCFLYKNQKGQGEIVSTLLPSTIDATGNSVSAGQLLCGGLFSTDSLSNWCAAVALAHALQENATQKEQLLRVQLATSIGNPPVSLLQQCTNILSQGSKIQTRVGLLMLLCTWLSNCPIAVTHFLHNSANVPFLTGQIAENLGEEEQLVQGLCALLLGISIYFNDNSLESYMKEKLKQLIEKRIGKENFIEKLGFISKHELYSRASQKPQPNFPSPEYMIFDHEFTKLVKELEGVITKAIYKSSEEDKKEEEVKKTLEQHDNIVTHYKNMIREQDLQLEELRQQVSTLKCQNEQLQTAVTQQVSQIQQHKDQYNLLKIQLGKDNQHQGSYSEGAQMNGIQPEEIGRLREEIEELKRNQELLQSQLTEKDSMIENMKSSQTSGTNEQSSAIVSARDSEQVAELKQELATLKSQLNSQSVEITKLQTEKQELLQKTEAFAKSVEVQGETETIIATKTTDVEGRLSALLQETKELKNEIKALSEERTAIKEQLDSSNSTIAILQTEKDKLELEITDSKKEQDDLLVLLADQDQKILSLKNKLKDLGHPVEEEDELESGDQEDEDDESEDPGKDLDHI
In the case of B1, the binding [1] is reported as “binds”, the binding [2] is reported as “binds” and the binding [3] is reported as “binds weakly”.
